No constants are given. Whether binding was seen depends on the method and setting. Where a sequence is shown, tags or fusion partners need not be part of it.

This test addresses recombinant MYM SIMs from ZNF261 (amino acids 236-490), untagged (human) (UniProt Q14202). As to the kind of experiment: AUC; sedimentation equilibrium of the ZNF261 fragment alone at 10, 20 and 40 uM; 20 mM HEPES pH 7.6, 350 mM NaCl, 5 mM DTT, 10 uM ZnCl2, 10 C; 15,000, 20,000 and 25,000 rpm; single species model; both purified.

B1: recombinant MYM SIMs from ZNF261 (amino acids 236-490), untagged (domain or fragment, UniProt Q14202 236-490)
chain: ERKRSERVRRAEPPKPEVVDSTESIPVSDEDSDAMVDDPNDEDFVPFRPRRSPRMSLRSSVSQRAGRSAVGTKMTCAHCRTPLQKGQTAYQRKGLPQLFCSSSCLTTFSKKPSGKKTCTFCKKEIWNTKDSVVAQTGSGGSFHEFCTSVCLSLYEAQQQRPIPQSGDPADATRCSICQKTGEVLHEVSNGSVVHRLCSDSCFSKFRANKGLKTNCCDQCGAYIYTKTGSPGPELLFHEGQQKRFCNTTCLGAYKK
Turning to B1, the binding entry was “no binding (tested: 10, 20, and 40 µM)”.

For the origin of these results see publication PMC4136804.
